{"source": "paper PMC12012714", "tested_on": "cGAS", "assay": "EMSA", "settings": "4 pmol DNA, 15 ug cGAS, 5' biotin on listed oligos (not stated whether present in the cGAS assay), cGAS EMSA: 4 pmol DNA + 15 ug cGAS, 37 °C 10 min, 3.5% agarose TBE gel, 300 V, cold buffer, EtBr stain, salt and pH not stated, recombinant protein, protein details: His6-SUMO (not removed)", "note": "For at least one entry, the source does not settle the construct or the ends of the probe."}
{"sequence": "GGAGACCGTGACCGGTGGTGCAGATGAACTTCAGGGTCACGGTGGTGCAGATGAACTTCAGGGTCA (double strand) [66 bp dsDNA (66.1/66.2)]", "values": [{"measurement": "binding result", "value": "binds"}]}
